{"source": "PubChem BioAssay AID602313", "about": "(National Center for Advancing Translational Sciences (NCATS), 2012)", "note": "Out of some 390,000 compounds screened, about 760 (0.19%) were called active. The shares of active, inactive and inconclusive entries below differ from those in the screen. Calls follow the shape of the dose curve; as a rule, active = well fitted inhibition curve with a large enough effect; inconclusive = small, poorly fitted or top-dose-only effect; inactive = flat fitted curve, though single readings scatter. Potencies of inconclusive entries are doubtful fits and often do not repeat. Potency is read from the fitted curve at half-maximal effect."}
{"assay": "qHTS for Inhibitors of Vif-A3F Interactions: qHTS; also: nearly all actives have a fitted effect of over 65% in size; as to activity, negative = active: % of control where 0% means no effect", "settings": "HeLa A3F-eYFP + Vif (tagged APOBEC3F with the HIV-1 protein that degrades it), YFP fluorescence increase; series mostly up to 46.1 µM; activity, negative = active: at the top concentration", "how_it_was_run": "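HeLa cells stably expressing Vif plus C-terminally eYFP-tagged A3F were seeded, incubated overnight at 37 deg C, dosed with compound, incubated overnight again at 37 deg C. Yellow fluorescence (Ex 488/Em 500-530) reported blocked Vif-mediated A3F-eYFP degradation.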"}
{"compound": "CC1=CC(C)(C)Nc2ccc(OC(=O)c3ccco3)cc21", "Potency": "inconclusive: 22.4 µM [inhibitor, partial curve, poor fit]"}
{"compound": "Cc1ccc2c(=O)c(C(=O)c3cccc(Cl)c3)cn(CC(=O)NCc3ccc(F)cc3)c2n1", "Potency": "inconclusive: 12.6 µM [inhibitor, partial curve, poor fit]"}
{"compound": "CN(C)c1ccc(N/C=C/C(=O)c2ccccc2)cc1", "Potency": "inconclusive: 12.6 µM [inhibitor, partial curve, poor fit]"}
{"compound": "Cc1ccc(N2CC(C(=O)Nc3ccc(Br)cc3)CC2=O)cc1", "note": "(centres undefined)", "Potency": "inconclusive: 20 µM [inhibitor, partial curve, poor fit]"}
{"compound": "COc1cc(/C=C2\\SC(=N)N(c3ccc(F)cc3)C2=O)ccc1O", "Potency": "inconclusive: 31.6 µM [inhibitor, single point]"}
{"compound": "Cc1cc(=O)cc(C)n1-c1ccc(Cl)c(Cl)c1", "Potency": "inconclusive: 5.62 µM [inhibitor, single point]"}
{"compound": "Fc1cccc(NC(=S)NC2CCCCCCC2)c1", "Potency": "inconclusive: 35.5 µM [inhibitor, single point]"}
{"compound": "COc1nccnc1NS(=O)(=O)c1ccc(N=Cc2c(C)[nH]n(-c3ccccc3)c2=O)cc1", "Potency": "inconclusive: 1.26 µM [inhibitor, partial curve, poor fit]"}
{"compound": "S=c1[nH]cnc2sc(-c3ccccc3)cc12", "Potency": "active: 5.62 µM"}
{"compound": "Cc1cc(C)n2nc(SCC(=O)NC3CCCCC3C)nc2n1", "note": "(centres undefined)", "Potency": "inconclusive: 6.31 µM [inhibitor, single point]"}
{"compound": "O=S(=O)(Nc1nc2ccc(Cl)cc2s1)c1cccs1", "Potency": "inconclusive: 3.55 µM [inhibitor, partial curve, poor fit]"}
{"compound": "CCCCc1ccccc1NC(=S)NC1CCCC1", "Potency": "inconclusive: 22.4 µM [inhibitor, single point]"}
{"compound": "Fc1ccc(CNC(=S)NC2CCCCCC2)cc1", "Potency": "inconclusive: 35.5 µM [inhibitor, single point]"}
{"compound": "CCN(C(=O)COC(=O)CCS(=O)(=O)c1ccc(C)cc1)C1CCS(=O)(=O)C1", "note": "(centres undefined)", "Potency": "inconclusive: 35.5 µM [inhibitor, partial curve, poor fit]"}
{"compound": "O=C(N/C(=C/c1ccccc1Cl)C(=O)N1CCCC1)c1ccccc1", "Potency": "inconclusive: 6.31 µM [inhibitor, single point]"}
{"compound": "Cc1ccc(-c2nc(-c3cc4cccc(OCc5cccc(C)c5)c4oc3=O)no2)cc1", "Potency": "inconclusive: 17.8 µM [inhibitor, partial curve, poor fit]"}
{"compound": "Cc1cc(C)c[n+](-c2nc3ccccc3nc2[N-]S(=O)(=O)c2ccc(Br)s2)c1", "Potency": "inconclusive: 2.24 µM [inhibitor, full curve, poor fit]"}
{"compound": "O=C1NC(=S)SC1=Cc1ccccc1Br", "activity, negative = active": "inactive: 4.6%"}
{"compound": "COc1ccc(-n2cc(-c3ccccc3)nc2SCC(=O)Nc2ccccc2)cc1Cl", "Potency": "inconclusive: 35.5 µM [inhibitor, partial curve, poor fit]"}
{"compound": "Cc1ccc(S(=O)(=O)Nc2ccc3c(c2)C(=O)N([C@H](C)CO)C[C@H](C)[C@@H](CN(C)C(=O)NC2CCCCC2)OCCCC[C@@H](C)O3)cc1", "Potency": "inconclusive: 11.2 µM [inhibitor, partial curve, poor fit]"}
{"compound": "Cc1ccc(-c2csc(NC(=O)c3ccccc3Cl)c2C(=O)O)cc1", "activity, negative = active": "inactive: -0.314%"}
{"compound": "CCC1(c2ccccc2)NC(=O)N(CC(=O)NC2(C#N)CCCCC2)C1=O", "note": "(centres undefined)", "Potency": "inconclusive: 6.31 µM [inhibitor, single point]"}
{"compound": "COc1ccc(C(=O)NCCN2C(=O)S/C(=C\\c3cccnc3)C2=O)cc1[N+](=O)[O-]", "activity, negative = active": "inactive: 10.4%"}
{"compound": "COC(=O)[C@@H](Cc1c[nH]c2ccccc12)NC(=O)CNC(=O)c1ccccc1OC", "Potency": "inconclusive: 35.5 µM [inhibitor, partial curve, poor fit]"}
{"compound": "Cc1ccc(C(=O)N2CCNC(=O)C2CC(=O)Nc2ccc(F)cc2)cc1C", "note": "(centres undefined)", "Potency": "inconclusive: 2.51 µM [inhibitor, full curve, poor fit]"}
{"compound": "Cc1cccc(C)c1-n1cccc1/C=C1\\SC(=S)N(c2cccc(C(=O)O)c2)C1=O", "Potency": "inconclusive: 35.5 µM [inhibitor, single point]"}
{"compound": "FC(F)Sc1ccc(NC(=S)NC2CCCC2)cc1", "Potency": "inconclusive: 22.4 µM [inhibitor, single point]"}
{"compound": "CCCCN1C(=O)C2(NNc3ccccc3O2)c2ccccc21", "note": "(centres undefined)", "Potency": "inconclusive: 35.5 µM [inhibitor, single point]"}
{"compound": "O=C1c2cccc3c([N+](=O)[O-])c(O)cc(c23)C(=O)N1Nc1ccccc1", "Potency": "active: 10 µM"}
{"compound": "COc1cc(-c2cc(O)c(-c3ccc4ccccc4n3)c(=O)[nH]2)cc(OC)c1OC", "Potency": "active: 11.2 µM"}
{"compound": "O=C1C(Cl)=C(NCCCN2CCOCC2)C(=O)c2ccccc21", "activity, negative = active": "inactive: 2.14%"}
{"compound": "C/C=C/C(=O)OCC(=O)Nc1cccc(S(=O)(=O)NC2=NCCCCC2)c1", "Potency": "inconclusive: 7.08 µM [inhibitor, partial curve, poor fit]"}
{"compound": "COc1ccc(S(=O)(=O)Nc2cc3c(cc2NCc2ccccc2)n(C)c(=O)n3C)cc1OC", "activity, negative = active": "inactive: -5.47%"}
{"compound": "COc1ccc(CNC(=O)CCC(=O)Nc2ccc(Cl)cc2)cc1", "activity, negative = active": "inactive: 1.47%"}
{"compound": "CCN(CC)CCCN(Cc1cc2cc3c(cc2[nH]c1=O)OCO3)C(=S)Nc1ccccc1", "activity, negative = active": "inactive: 0.403%"}
{"compound": "Cc1c(-c2cc(Br)ccc2O)nc2cc3c(cc2c1C)OCO3", "Potency": "inconclusive: 25.1 µM [inhibitor, single point]"}
{"compound": "CCOc1cc(C(=O)N(CC)CC(=O)Nc2ccc3c(c2)OCCO3)ccc1OC", "Potency": "inconclusive: 35.5 µM [inhibitor, single point]"}
{"compound": "CC1CCN(C(=O)c2cnn(-c3cccc(Cl)c3)c2C2CCN(C(=O)OC(C)(C)C)CC2)CC1", "activity, negative = active": "inactive: -0.571%"}
{"compound": "COc1ccc(NS(=O)(=O)c2ccc(C(=O)Nc3c(C)n(C)n(-c4ccccc4)c3=O)cc2)cc1", "Potency": "inconclusive: 2.82 µM [inhibitor, full curve, poor fit]"}
{"compound": "CCCNC(=O)c1cc(-c2ccco2)on1", "Potency": "inconclusive: 7.08 µM [inhibitor, partial curve, poor fit]"}
{"compound": "Cc1cc(Cl)ccc1OCc1nc(-c2ccncc2)no1", "Potency": "inconclusive: 6.31 µM [inhibitor, single point]"}
{"compound": "Cc1ccc2oc(=O)c(/C=C(\\O)C(C)(C)C)nc2c1", "Potency": "inconclusive: 35.5 µM [inhibitor, single point]"}
{"compound": "CCOc1ccc(NS(=O)(=O)c2ccc(C(=O)NCC(c3ccccc3OC)N3CCCC3)cc2)cc1", "note": "(centres undefined)", "Potency": "inconclusive: 5.01 µM [inhibitor, single point]"}
{"compound": "CCOC(=O)N1CCN(c2c(NCc3cccs3)c(=O)c2=O)CC1", "activity, negative = active": "inactive: -17.2%"}
{"compound": "COc1cccc(-c2ccc(NC(=O)C3CCCN(Cc4cccc(C)n4)C3)cc2)c1", "note": "(centres undefined)", "Potency": "inconclusive: 15.8 µM [inhibitor, single point]"}
{"compound": "S=c1[nH]nc(C2CCCCC2)n1Cc1ccccc1", "Potency": "inconclusive: 35.5 µM [inhibitor, single point]"}
{"compound": "COC(=O)c1sc2nc(C)nc(SCC(=O)Nc3sccc3C(N)=O)c2c1C", "Potency": "inconclusive: 25.1 µM [inhibitor, single point]"}
{"compound": "CCc1nc(Nc2ccc3nccnc3c2)c2oc3ccccc3c2n1", "Potency": "active: 22.4 µM"}
{"compound": "Cc1ccc(-n2c(O)c(C=Nc3ccc4c(c3)OCO4)c3ccccc3c2=O)cc1C", "Potency": "inconclusive: 11.2 µM [inhibitor, partial curve, poor fit]"}
{"compound": "COc1ccc2o/c(=N/NC(=O)c3cccs3)c(C(N)=O)cc2c1", "Potency": "inconclusive: 1.12 µM [inhibitor, partial curve, poor fit]"}
{"compound": "COc1ccccc1NC(=O)COC(=O)c1cc(C)nc2ccccc12", "activity, negative = active": "inactive: -12.8%"}
{"compound": "COc1ccc(Br)c2oc(S)cc(=O)c12", "activity, negative = active": "inactive: -15.9%"}
{"compound": "CC1=CC(c2ccccc2)n2nc(N)nc2N1", "note": "(centres undefined)", "activity, negative = active": "inactive: 2.68%"}
{"compound": "CCOc1cc(N2CCOCC2)c(OCC)cc1NC(=O)c1ccc(OC)c(S(=O)(=O)N2CCOCC2)c1", "Potency": "inconclusive: 10 µM [inhibitor, partial curve, poor fit]"}
{"compound": "COc1ccc(/C=C2/SC(=S)N(c3ccc(S(=O)(=O)Nc4nccs4)cc3)C2=O)cc1", "Potency": "inconclusive: 35.5 µM [inhibitor, single point]"}
{"compound": "CC(C)C[C@@H](CN1CCC[C@@H]1CN1C(=O)C(=O)NC[C@@H]1Cc1ccccc1)N1C[C@H](Cc2ccc(O)cc2)N(CC2CCCCCC2)C(=O)C1=O", "activity, negative = active": "inactive: -15.7%"}
{"compound": "Cc1nn(-c2ccccc2)c2[nH]c(=O)c(CNCc3ccc4c(c3)OCO4)cc12", "activity, negative = active": "inactive: -3.2%"}
{"compound": "Cc1ccc(S(=O)(=O)Nc2ccc(-c3nnc(SCc4ccccc4Cl)o3)cc2)cc1", "Potency": "inconclusive: 12.6 µM [inhibitor, partial curve, poor fit]"}
{"compound": "Cc1sc2ncnc(Nc3ccc(O)cc3)c2c1C", "Potency": "inconclusive: 17.8 µM [inhibitor, single point]"}
{"compound": "COc1cc(C2c3cc4c(cc3C(OC3OC5COC(c6cccs6)OC5C(O)C3O)C3COC(=O)C23)OCO4)cc(OC)c1O", "note": "(centres undefined)", "Potency": "inconclusive: 5.62 µM [inhibitor, partial curve, poor fit]"}
{"compound": "O=[N+]([O-])c1cc2cccnc2c2ncccc12", "Potency": "inconclusive: 35.5 µM [inhibitor, single point]"}
{"compound": "Cc1ccc(S(=O)(=O)Nc2ccc(N=Nc3ccc(O)cc3)cc2)cc1", "Potency": "inconclusive: 22.4 µM [inhibitor, single point]"}
{"compound": "O=C(Nc1cccc(S(=O)(=O)N2CCCCC2)c1)Nc1ccc(Cl)cc1Cl", "Potency": "inconclusive: 7.94 µM [inhibitor, partial curve, poor fit]"}
{"compound": "CNC(=O)NC(=O)C(OC(=O)Cc1cccc(C(F)(F)F)c1)c1ccccc1", "note": "(centres undefined)", "Potency": "inconclusive: 6.31 µM [inhibitor, partial curve, poor fit]"}
